# In publication PMC7044199:
# Amino acid sequences for entries named in this document (tags omitted).
# UniProt P19474: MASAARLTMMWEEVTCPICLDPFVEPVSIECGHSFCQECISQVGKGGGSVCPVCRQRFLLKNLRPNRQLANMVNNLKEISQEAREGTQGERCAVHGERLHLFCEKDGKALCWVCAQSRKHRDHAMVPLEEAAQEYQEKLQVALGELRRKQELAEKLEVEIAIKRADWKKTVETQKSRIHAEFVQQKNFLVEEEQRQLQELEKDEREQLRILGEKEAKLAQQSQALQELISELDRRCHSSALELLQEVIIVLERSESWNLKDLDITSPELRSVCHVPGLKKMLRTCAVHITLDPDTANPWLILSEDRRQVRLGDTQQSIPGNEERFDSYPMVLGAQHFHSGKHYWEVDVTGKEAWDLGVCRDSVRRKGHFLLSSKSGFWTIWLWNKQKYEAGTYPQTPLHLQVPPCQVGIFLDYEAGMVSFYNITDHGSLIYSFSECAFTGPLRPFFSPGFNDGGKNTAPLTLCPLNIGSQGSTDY
# Results are given in words; binding and its absence hold for the method and conditions named. Binding seen in cells or lysates may run through a third protein. Some results given as binding are weak or reduced against the parent protein; the word gives no strength. For part of these data: Where a sequence is shown, tags or fusion partners need not be part of it.
# What was measured:
# FLAG-SET7/9 = target: T1, FLAG-SET7/9 (UniProt Q8WTS6); test: co-IP; column-bound proteins of the anti-FLAG purification from MCF-7 cells expressing FLAG-SET7/9, western blot with antibodies against TRIM21
# T1 sequence: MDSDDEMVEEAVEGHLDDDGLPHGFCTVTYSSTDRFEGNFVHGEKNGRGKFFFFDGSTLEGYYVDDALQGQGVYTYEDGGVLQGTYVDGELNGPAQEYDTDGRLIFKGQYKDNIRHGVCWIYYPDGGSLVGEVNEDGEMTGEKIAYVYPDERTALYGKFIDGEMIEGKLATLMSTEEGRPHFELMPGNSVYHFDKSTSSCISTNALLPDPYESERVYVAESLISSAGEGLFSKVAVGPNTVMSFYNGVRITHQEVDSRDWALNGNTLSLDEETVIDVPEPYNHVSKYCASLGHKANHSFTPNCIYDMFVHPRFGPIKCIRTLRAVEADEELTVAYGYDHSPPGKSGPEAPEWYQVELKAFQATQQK
# [1] = target: T2, SET7/9, endogenous (human (endogenous in MCF-7, T-47D, MDA-MB-231, MCF-10A)) (UniProt Q8WTS6); test: co-IP; endogenous proteins in lysates of MCF-7, T-47D, MDA-MB-231 and MCF-10A cells; lysis buffer 50 mM Tris-HCl pH 8.0, 0.5% NP40, 150 mM NaCl, 1 mM EDTA, 0.5% sodium deoxycholate; 3 ug antibody overnight at 4 C, protein A/G Sepharose; IP with SET7/9 antibodies and the reciprocal IP with TRIM21 …
# T2 sequence: T1 sequence
# GST-SET7/9 = target: T3, GST-SET7/9 (UniProt Q8WTS6); test: pull-down; GST-SET7/9 or its deletion mutants with in vitro-transcribed and translated full-length TRIM21 (rabbit reticulocyte lysate); only the target purified
# T3 sequence: T1 sequence
Substance,binding (FLAG-SET7/9),binding [1],binding (GST-SET7/9)
"Tripartite motif-containing protein 21 (TRIM21), endogenous (from UniProt P19474 1-475) (enzyme)",binds,binds,–
in vitro-transcribed and translated full-length TRIM21 (from UniProt P19474 1-475) (enzyme),–,–,binds
